Consider three substances from article PMC5457515.

By UniProt entry, the sequences of proteins in these tests, tags left out.
UniProt Q86WV6: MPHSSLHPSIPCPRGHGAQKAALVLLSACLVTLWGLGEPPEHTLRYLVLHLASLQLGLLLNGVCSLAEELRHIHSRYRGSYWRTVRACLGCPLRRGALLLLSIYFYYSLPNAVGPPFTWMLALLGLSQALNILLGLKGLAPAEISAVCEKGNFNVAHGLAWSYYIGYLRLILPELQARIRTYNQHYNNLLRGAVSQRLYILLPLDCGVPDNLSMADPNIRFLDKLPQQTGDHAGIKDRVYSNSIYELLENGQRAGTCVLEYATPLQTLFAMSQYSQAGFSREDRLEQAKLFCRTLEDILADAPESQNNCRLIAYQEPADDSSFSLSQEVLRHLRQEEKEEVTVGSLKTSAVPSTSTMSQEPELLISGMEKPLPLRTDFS
UniProt P45974: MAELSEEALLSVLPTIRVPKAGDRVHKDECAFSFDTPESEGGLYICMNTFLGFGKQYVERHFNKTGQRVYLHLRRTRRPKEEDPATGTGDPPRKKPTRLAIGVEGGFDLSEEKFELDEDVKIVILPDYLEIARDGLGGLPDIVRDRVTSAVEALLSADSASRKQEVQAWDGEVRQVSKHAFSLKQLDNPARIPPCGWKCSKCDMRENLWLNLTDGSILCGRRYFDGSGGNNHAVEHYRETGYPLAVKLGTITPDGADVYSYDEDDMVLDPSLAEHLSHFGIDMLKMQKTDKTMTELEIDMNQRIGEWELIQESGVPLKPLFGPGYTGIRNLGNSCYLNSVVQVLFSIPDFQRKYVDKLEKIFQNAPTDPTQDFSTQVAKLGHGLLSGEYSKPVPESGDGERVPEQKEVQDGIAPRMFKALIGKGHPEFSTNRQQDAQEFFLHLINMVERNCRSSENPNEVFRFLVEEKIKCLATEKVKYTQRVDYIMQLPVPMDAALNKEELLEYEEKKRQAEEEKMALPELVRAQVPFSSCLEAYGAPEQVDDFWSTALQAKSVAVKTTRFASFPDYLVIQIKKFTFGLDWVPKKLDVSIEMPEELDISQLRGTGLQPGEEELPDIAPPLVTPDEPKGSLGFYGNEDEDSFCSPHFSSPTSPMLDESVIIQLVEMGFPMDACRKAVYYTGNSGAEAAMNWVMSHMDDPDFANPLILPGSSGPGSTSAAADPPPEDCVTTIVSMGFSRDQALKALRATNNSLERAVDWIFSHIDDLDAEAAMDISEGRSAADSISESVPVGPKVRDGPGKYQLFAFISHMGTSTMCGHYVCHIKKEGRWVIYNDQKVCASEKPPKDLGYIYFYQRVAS
UniProt Q9UKV5: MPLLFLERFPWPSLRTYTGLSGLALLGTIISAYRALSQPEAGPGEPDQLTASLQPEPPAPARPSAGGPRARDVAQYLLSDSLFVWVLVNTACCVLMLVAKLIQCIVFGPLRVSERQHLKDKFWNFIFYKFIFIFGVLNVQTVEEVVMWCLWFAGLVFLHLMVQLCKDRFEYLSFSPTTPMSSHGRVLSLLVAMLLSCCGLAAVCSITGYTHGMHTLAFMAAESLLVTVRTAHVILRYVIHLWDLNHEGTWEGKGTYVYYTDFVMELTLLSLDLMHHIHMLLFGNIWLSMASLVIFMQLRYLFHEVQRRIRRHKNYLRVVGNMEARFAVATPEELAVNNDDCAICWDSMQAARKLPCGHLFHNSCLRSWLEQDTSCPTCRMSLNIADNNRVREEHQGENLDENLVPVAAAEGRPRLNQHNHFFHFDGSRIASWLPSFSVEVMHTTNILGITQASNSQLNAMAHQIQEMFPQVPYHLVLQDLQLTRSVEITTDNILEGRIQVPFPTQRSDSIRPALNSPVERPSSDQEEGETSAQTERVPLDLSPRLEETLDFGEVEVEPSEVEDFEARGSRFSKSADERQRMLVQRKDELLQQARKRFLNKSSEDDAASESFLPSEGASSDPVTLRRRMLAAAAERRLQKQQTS
UniProt Q13049: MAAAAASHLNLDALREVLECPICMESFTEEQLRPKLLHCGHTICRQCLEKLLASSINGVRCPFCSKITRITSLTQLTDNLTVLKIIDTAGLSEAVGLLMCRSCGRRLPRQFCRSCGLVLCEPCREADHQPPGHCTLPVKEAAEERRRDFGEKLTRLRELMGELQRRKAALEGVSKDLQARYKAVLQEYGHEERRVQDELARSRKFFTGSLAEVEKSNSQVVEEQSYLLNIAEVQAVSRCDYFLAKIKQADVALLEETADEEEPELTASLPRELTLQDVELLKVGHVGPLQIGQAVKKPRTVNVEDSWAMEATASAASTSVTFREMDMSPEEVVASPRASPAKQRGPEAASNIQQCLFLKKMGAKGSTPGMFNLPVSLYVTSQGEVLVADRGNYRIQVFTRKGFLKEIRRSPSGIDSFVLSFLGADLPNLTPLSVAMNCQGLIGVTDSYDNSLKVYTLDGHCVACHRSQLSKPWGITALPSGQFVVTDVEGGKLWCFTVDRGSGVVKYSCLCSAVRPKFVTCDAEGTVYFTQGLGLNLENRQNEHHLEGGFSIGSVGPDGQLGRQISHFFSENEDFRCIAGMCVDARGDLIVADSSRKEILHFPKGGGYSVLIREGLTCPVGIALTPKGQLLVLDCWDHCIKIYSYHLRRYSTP

The target in test [1] is STING, overexpressed (Supplementary Figs 6a and 9c) (UniProt Q86WV6). As to the kind of experiment: co-IP; association of STING with AMFR or TRIM32, with USP13 (Supplementary Fig. 6a; legend not shown).
The target in the next test is FLAG-tagged USP5 (UniProt P45974). Nature of the test: co-IP; HEK293 cells transfected 24 h with FLAG-tagged USPs and HA-STING; IP with anti-FLAG, blot with anti-FLAG and anti-HA; lysis buffer 20 mM Tris-HCl pH 7.4-7.5, 150 mM NaCl, 1 mM EDTA, 1% Nonidet P-40.
Test [2] concerns the target T1, FLAG-tagged ubiquitin-specific protease 13 (USP13) (UniProt Q92995).
T1 sequence: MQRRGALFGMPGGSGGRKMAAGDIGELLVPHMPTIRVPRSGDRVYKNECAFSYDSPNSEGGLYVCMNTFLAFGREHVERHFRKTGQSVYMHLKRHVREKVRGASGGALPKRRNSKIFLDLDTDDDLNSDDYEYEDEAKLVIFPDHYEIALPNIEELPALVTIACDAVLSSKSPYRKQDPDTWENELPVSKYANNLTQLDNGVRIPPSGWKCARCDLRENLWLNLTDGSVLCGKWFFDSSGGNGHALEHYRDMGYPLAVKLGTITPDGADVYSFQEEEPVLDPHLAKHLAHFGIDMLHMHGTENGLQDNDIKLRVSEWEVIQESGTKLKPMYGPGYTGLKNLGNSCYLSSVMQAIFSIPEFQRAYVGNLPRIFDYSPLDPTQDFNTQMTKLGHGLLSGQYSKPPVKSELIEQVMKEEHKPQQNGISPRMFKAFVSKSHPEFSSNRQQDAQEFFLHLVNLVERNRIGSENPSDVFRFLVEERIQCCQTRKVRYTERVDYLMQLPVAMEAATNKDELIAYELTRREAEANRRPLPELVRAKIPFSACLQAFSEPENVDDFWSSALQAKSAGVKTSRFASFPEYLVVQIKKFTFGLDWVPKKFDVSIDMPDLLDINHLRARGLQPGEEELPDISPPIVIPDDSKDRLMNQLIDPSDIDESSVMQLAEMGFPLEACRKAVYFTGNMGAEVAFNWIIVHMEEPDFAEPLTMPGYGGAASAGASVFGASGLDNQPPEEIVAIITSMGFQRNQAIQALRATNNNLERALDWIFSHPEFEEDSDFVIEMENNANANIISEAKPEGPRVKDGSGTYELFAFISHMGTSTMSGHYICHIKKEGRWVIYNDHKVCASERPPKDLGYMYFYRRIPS
The test is described as above.

These are yes or no findings as the source states them, for the method shown. Binding seen in cells or lysates may run through a third protein. Some results given as binding are weak or reduced against the parent protein; the word gives no strength. For some of these results: Where a sequence is shown, tags or fusion partners need not be part of it.

For “AMFR (from UniProt Q9UKV5 1-643) (enzyme)”, in test [1], the binding entry is “binds”.

Regarding HA-STING (from UniProt Q86WV6 1-379), the binding result is listed as “no binding” with FLAG-tagged USP5 and “binds” in test [2].

As for “TRIM32 (from UniProt Q13049 1-653) (enzyme)”, the binding result in test [1] is “binds”.
